No constants are given. Whether binding was seen depends on the method and setting. In cells and extracts the contact can be indirect. Here binding means that the protein was enriched with, or labelled near, the bait; the list need not be complete. Tags and fused reporters may be left off the sequences shown.
target: T1, C-terminal 3× FLAG-HA-tagged CT47 (human) (UniProt Q5JQC4); experiment: affinity purification with mass spectrometry; CT47-3×FLAG.HA expressed in HEK293T; FLAG-immunoprecipitation followed by HA-immunoprecipitation (FLAG HA Tandem Affinity Purification Kit) from the cell lysate; eluate run on a gel, silver stained, LC-MS/MS; control: pCMV-tag2b plasmid
T1 sequence: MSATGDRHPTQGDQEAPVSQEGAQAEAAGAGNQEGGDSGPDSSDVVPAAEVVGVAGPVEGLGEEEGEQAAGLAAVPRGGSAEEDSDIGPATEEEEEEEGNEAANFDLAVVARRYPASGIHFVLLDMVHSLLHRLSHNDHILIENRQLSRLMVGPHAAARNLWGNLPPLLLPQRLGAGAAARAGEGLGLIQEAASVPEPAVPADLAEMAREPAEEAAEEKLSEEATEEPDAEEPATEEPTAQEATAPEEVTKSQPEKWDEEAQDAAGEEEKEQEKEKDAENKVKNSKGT

By UniProt entry, the sequences of proteins in these tests, tags left out. Residues count along the entry.
UniProt P25705, residues 44-553: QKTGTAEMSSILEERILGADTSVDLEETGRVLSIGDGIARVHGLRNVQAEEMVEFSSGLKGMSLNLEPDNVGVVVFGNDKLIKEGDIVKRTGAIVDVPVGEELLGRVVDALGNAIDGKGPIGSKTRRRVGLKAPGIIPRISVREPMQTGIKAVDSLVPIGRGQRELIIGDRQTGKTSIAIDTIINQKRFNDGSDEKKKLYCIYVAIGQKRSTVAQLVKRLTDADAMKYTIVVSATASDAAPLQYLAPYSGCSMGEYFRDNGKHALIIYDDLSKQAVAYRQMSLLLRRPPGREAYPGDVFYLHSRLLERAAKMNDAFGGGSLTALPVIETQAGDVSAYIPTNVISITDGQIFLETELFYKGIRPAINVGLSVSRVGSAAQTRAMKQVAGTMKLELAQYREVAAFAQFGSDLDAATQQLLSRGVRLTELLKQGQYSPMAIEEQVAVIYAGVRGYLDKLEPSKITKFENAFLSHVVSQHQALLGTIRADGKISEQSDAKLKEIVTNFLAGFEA
UniProt P34931: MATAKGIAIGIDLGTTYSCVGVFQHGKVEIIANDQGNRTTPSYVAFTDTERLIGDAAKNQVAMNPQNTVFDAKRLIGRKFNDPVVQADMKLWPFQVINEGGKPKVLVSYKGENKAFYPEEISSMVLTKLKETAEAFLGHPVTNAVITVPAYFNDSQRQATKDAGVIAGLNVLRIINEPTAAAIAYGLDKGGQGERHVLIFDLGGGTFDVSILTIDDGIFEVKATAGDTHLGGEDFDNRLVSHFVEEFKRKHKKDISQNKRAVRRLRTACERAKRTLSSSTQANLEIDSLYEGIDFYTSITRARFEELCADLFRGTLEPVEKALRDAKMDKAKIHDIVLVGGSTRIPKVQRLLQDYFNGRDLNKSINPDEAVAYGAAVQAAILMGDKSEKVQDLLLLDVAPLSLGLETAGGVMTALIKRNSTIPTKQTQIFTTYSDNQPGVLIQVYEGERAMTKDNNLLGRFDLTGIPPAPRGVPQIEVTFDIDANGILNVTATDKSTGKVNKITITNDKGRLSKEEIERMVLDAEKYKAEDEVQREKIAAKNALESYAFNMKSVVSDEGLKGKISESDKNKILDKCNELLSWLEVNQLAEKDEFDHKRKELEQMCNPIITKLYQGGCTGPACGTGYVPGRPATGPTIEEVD
UniProt P11021, residues 19-654: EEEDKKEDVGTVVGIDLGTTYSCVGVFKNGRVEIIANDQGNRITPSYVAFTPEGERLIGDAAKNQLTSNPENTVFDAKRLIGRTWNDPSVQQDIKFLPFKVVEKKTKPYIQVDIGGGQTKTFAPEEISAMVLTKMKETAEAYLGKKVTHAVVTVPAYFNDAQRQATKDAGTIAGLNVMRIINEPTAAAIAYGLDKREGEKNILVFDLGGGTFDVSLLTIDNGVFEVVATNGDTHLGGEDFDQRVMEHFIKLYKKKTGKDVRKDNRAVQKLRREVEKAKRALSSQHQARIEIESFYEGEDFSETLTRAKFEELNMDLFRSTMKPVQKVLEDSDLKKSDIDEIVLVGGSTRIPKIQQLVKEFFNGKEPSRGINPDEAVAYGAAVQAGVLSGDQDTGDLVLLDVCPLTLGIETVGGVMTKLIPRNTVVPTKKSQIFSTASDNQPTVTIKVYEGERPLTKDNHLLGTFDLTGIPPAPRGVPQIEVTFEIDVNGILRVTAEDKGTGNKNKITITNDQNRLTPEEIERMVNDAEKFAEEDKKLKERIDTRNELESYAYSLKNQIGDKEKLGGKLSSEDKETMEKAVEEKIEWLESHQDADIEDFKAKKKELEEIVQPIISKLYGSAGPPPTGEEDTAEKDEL
UniProt P17066: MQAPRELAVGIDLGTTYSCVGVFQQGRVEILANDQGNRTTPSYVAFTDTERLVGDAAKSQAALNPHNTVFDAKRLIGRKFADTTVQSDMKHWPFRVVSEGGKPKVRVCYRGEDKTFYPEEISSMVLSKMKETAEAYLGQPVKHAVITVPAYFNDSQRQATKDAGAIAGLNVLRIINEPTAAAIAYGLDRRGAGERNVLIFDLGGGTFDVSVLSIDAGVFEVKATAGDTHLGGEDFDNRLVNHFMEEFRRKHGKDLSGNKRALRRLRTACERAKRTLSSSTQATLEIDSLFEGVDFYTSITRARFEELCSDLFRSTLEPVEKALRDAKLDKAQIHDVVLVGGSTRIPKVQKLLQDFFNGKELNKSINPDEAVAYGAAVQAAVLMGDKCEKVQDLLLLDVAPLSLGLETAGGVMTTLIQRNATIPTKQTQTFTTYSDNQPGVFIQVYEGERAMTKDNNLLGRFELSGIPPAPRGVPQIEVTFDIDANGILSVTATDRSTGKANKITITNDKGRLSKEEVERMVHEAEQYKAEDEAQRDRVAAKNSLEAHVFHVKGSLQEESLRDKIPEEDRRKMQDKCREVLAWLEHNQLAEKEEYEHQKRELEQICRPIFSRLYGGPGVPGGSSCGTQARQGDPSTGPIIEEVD
UniProt P11142: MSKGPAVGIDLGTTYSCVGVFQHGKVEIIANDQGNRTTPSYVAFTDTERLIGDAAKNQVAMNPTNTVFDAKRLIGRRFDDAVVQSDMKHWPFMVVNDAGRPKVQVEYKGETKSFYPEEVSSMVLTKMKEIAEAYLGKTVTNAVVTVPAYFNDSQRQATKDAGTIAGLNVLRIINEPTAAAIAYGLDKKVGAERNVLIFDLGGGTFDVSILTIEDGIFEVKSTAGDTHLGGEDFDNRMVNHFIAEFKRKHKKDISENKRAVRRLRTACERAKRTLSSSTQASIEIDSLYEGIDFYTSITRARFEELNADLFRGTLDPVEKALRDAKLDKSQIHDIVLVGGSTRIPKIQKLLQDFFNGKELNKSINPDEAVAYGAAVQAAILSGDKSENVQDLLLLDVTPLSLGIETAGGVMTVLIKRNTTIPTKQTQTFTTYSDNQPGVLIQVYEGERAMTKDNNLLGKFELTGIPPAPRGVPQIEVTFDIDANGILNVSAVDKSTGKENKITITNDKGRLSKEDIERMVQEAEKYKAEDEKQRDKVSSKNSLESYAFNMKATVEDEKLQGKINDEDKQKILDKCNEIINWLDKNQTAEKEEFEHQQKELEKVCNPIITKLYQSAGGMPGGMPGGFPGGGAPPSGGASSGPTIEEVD
UniProt O14744: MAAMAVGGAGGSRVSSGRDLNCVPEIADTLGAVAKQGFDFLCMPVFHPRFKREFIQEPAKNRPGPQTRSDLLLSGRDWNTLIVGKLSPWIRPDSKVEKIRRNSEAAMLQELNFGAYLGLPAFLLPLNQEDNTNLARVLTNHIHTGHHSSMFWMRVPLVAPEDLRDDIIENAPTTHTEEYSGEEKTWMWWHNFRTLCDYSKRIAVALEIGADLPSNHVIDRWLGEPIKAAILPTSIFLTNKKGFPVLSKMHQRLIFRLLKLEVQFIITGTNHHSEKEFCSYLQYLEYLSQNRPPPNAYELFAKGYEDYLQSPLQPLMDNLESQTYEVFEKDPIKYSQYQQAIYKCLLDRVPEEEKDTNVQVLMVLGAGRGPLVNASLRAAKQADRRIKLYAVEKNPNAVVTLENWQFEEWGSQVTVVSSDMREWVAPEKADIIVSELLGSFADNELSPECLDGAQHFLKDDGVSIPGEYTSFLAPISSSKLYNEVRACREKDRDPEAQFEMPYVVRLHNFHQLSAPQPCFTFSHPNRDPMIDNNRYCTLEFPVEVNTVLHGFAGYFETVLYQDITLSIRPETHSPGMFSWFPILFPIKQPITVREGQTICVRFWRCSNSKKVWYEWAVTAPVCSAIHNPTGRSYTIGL
UniProt P19474: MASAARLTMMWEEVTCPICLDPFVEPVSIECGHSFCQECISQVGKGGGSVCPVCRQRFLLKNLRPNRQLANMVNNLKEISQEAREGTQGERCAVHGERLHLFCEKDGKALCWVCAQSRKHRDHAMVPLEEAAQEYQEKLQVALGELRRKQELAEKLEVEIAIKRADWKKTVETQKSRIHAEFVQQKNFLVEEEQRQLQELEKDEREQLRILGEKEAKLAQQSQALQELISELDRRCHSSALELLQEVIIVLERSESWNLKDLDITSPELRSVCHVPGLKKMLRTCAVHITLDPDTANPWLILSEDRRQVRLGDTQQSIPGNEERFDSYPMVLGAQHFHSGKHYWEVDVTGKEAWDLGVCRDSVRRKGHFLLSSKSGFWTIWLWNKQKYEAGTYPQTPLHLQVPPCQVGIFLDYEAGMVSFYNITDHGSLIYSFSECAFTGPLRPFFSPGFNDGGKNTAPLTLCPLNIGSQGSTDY
UniProt P68371: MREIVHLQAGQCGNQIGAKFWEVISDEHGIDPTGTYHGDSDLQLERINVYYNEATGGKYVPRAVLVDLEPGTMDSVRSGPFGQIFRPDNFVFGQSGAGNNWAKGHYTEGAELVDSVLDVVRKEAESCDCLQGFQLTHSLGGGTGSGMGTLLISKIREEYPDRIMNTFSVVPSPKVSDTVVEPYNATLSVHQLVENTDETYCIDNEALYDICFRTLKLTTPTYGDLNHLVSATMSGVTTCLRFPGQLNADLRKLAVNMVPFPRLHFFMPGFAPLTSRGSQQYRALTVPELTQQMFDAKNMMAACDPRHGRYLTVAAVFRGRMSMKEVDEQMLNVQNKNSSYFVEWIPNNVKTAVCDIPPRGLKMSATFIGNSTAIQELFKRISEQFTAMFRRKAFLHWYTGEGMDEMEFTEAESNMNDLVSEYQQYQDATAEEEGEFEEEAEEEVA
UniProt P07437: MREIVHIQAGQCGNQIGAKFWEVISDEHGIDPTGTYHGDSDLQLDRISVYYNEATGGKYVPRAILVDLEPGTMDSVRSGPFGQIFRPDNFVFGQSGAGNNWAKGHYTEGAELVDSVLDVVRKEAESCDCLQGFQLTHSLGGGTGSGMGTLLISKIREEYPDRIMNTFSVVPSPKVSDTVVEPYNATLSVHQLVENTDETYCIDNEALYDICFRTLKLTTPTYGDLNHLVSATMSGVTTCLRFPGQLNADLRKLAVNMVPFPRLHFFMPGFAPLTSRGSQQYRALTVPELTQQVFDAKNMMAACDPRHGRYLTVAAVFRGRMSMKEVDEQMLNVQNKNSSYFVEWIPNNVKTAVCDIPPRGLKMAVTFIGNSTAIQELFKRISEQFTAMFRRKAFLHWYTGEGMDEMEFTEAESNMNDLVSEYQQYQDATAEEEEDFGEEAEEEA

binding, binds:
ATP5A1 (from UniProt P25705 44-553), HSP9A (human (endogenous in HEK293T)), HSPA1L (from UniProt P34931 1-641), HSPA5 (from UniProt P11021 19-654), HSPA6 (from UniProt P17066 1-643), HSPA8 (from UniProt P11142 1-646), PRMT5 (from UniProt O14744 1-637) (enzyme), TRIM21 (from UniProt P19474 1-475), TUBB4B (from UniProt P68371 1-445), TUBB (from UniProt P07437 1-444)

Reference: article PMC9345867
